{
  "source": "paper PMC10410440",
  "about": "“Preclinical PK investigation of a novel IDO1/TDO dual inhibitor—SHR9146 in mouse plasma and tissues by LC-MS/MS” (Frontiers in Oncology, 2023)",
  "assay": "Plasma pharmacokinetics of SHR9146 in mice (LC-MS/MS, non-compartmental analysis)",
  "format": "in vivo, ICR mice",
  "procedure": "ICR mice with body weight 16–26 g were supplied by Shanghai Lingchang Biotechnology Co., Ltd. (animal breeding license number SCXK (Shanghai) 2013-0018) and housed at Shanghai Institute of Materia Medica, Chinese Academy of Sciences [animal use license number SYXK (Shanghai) 2015-0027]. The mice used in this study were fasted overnight for 12 h but had free access to water. Food was supplied 4 h post-dose. All experiments in this study were conducted in accordance with the Guidelines for the Care and Use of Laboratory Animals of Shanghai Institute of Materia Medica, Chinese Academy of Sciences.\nA total of 30 mice were randomly assigned into five groups with equal numbers, males and females. One group was intravenously administrated with 5 mg/kg SHR9146 dissolved in […] plus 95% saline (adjusted pH to 4.0) under sterile conditions. The remaining four groups were administered respectively with a single dose of 20 , 40, or 80 mg/kg or multiple doses of 20 mg/kg twice daily for 7 days, by oral gavage of SHR9146 dissolved in 0.5% CMC-Na. Blood samples were obtained from the fossa orbitalis vein at 15 and 30 min and 1.0, 2.0, 4.0, 6.0, 8.0, 10.0, and 24.0 h after oral gavage administration. An additional 5-min time point was included for iv injection, as well as the pre-drug administration time points on the fifth, sixth, and seventh days in the multiple-dose group. The blood samples were collected in EDTA K2 anticoagulant blood collection tubes and centrifuged at 1,000 rpm for 5 min at 4°C. The supernatant plasma samples were thus produced.\nBriefly as follows, an aliquot of 25-μL plasma or tissue homogenate was spiked with 100 μL of internal standard solution (1 μg/mL for plasma, 0.2 μg/mL for tissue homogenate) and 300 μL of methanol added and vortex mixed for 60 s. The mixture was then centrifuged at 14,000 rpm at 4°C for 5.0 min, and the supernatant was diluted with methanol–water (4:1, v/v) in a ratio of 1:9 for the plasma or 1:1 for the tissue homogenate, and 5 μL of the resulting solution was injected for the LC-MS/MS analysis.\nThe pharmacokinetic parameters of SHR9146 in mouse plasma were estimated by Phoenix 1.4 software using a non-compartmental model.\nThe mean concentration–time curves of SHR9146 in mouse plasma after a single oral gavage dose of 20, 40, or 80 mg/kg, or a single intravenous dose of 5 mg/kg, or the 7th-day steady state after twice-daily multiple oral doses of 20 mg/kg are shown in Figure 5 (Table S6).",
  "note": "Where “and” joins values, the source holds several entries; their conditions need not be identical. Equal entries are not always repeated. This continues a long series; more values of the same kind are listed elsewhere.",
  "data": [
    {"molecule": "OCCn1cc(-c2ccc(N3CCC([C@H]4c5c(F)cccc5-c5cncn54)CC3)cc2)cn1", "note": "[SHR9146]", "values": [
      {"measurement": "plasma drug concentration, individual mice #1-#6", "setting": "5 mg/kg i.v., 0.083 h", "result": "6.501 µg/mL and 6.135 µg/mL and 7.070 µg/mL and 7.712 µg/mL and 5.854 µg/mL"},
      {"measurement": "plasma drug concentration, individual mice #1-#6", "setting": "5 mg/kg i.v., 0.25 h", "result": "4.634 µg/mL and 5.530 µg/mL and 5.068 µg/mL and 5.867 µg/mL and 5.061 µg/mL"},
      {"measurement": "plasma drug concentration, individual mice #1-#6", "setting": "5 mg/kg i.v., 0.5 h", "result": "3.814 µg/mL and 3.044 µg/mL and 3.947 µg/mL and 3.268 µg/mL and 3.049 µg/mL"},
      {"measurement": "plasma drug concentration, individual mice #1-#6", "setting": "5 mg/kg i.v., 1 h", "result": "2.136 µg/mL and 3.488 µg/mL and 2.715 µg/mL and 3.587 µg/mL and 2.184 µg/mL"},
      {"measurement": "plasma drug concentration, individual mice #1-#6", "setting": "5 mg/kg i.v., 2 h", "result": "0.498 µg/mL and 0.653 µg/mL and 0.503 µg/mL and 0.385 µg/mL and 0.588 µg/mL and 1.003 µg/mL"},
      {"measurement": "plasma drug concentration, individual mice #1-#6", "setting": "5 mg/kg i.v., 4 h", "result": "0.061 μg/mL and 0.354 μg/mL and 0.073 μg/mL (2×) and 0.198 μg/mL"},
      {"measurement": "plasma drug concentration, individual mice #1-#6", "setting": "20 mg/kg i.g. bid, 7 days, 7th day, 0.25 h", "result": "4.676 µg/mL and 7.420 µg/mL and 6.349 µg/mL and 6.700 µg/mL and 4.834 µg/mL"},
      {"measurement": "plasma drug concentration, individual mice #1-#6", "setting": "20 mg/kg i.g. bid, 7 days, 7th day, 0.5 h", "result": "4.970 µg/mL and 8.803 µg/mL and 11.634 µg/mL and 11.051 µg/mL and 5.196 µg/mL and 6.469 µg/mL"},
      {"measurement": "plasma drug concentration, individual mice #1-#6", "setting": "20 mg/kg i.g. bid, 7 days, 7th day, 1 h", "result": "9.924 µg/mL and 7.461 µg/mL and 7.708 µg/mL and 10.071 µg/mL and 11.514 µg/mL"},
      {"measurement": "plasma drug concentration, individual mice #1-#6", "setting": "20 mg/kg i.g. bid, 7 days, 7th day, 2 h", "result": "3.968 µg/mL and 4.754 µg/mL and 8.083 µg/mL and 3.763 µg/mL and 5.945 µg/mL and 10.521 µg/mL"},
      {"measurement": "plasma drug concentration, individual mice #1-#6", "setting": "20 mg/kg i.g. bid, 7 days, 7th day, 3 h", "result": "2.420 µg/mL and 2.321 µg/mL and 7.628 µg/mL and 3.494 µg/mL and 1.964 µg/mL and 1.194 µg/mL"},
      {"measurement": "plasma drug concentration, individual mice #1-#6", "setting": "20 mg/kg i.g. bid, 7 days, 7th day, 4 h", "result": "2.144 µg/mL and 1.661 µg/mL and 0.809 µg/mL and 1.078 µg/mL and 1.098 µg/mL and 2.751 µg/mL"},
      {"measurement": "plasma drug concentration, individual mice #1-#6", "setting": "20 mg/kg i.g. bid, 7 days, 7th day, 6 h", "result": "0.363 µg/mL and 0.277 µg/mL and 0.481 µg/mL and 0.091 µg/mL and 0.141 µg/mL and 1.368 µg/mL"},
      {"measurement": "plasma drug concentration, individual mice #1-#6", "setting": "20 mg/kg i.g. bid, 7 days, 7th day, 8 h", "result": "0.077 µg/mL and 0.148 µg/mL and 0.055 µg/mL and 0.068 µg/mL"},
      {"measurement": "plasma drug concentration, individual mice #1-#6", "setting": "20 mg/kg i.g. bid, 7 days, 7th day, 10 h", "result": 0.085, "unit": "µg/mL"},
      {"measurement": "plasma drug concentration, individual mice #1-#6", "setting": "20 mg/kg i.g. single, 0.25 h", "result": "4.318 µg/mL and 4.264 µg/mL and 10.424 µg/mL and 7.616 µg/mL and 13.439 µg/mL and 4.955 µg/mL"},
      {"measurement": "plasma drug concentration, individual mice #1-#6", "setting": "20 mg/kg i.g. single, 0.5 h", "result": "12.205 µg/mL and 7.513 µg/mL and 6.779 µg/mL and 4.648 µg/mL and 12.863 µg/mL and 4.841 µg/mL"},
      {"measurement": "plasma drug concentration, individual mice #1-#6", "setting": "20 mg/kg i.g. single, 1 h", "result": "4.121 µg/mL and 1.283 µg/mL and 4.054 µg/mL and 9.104 µg/mL and 4.762 µg/mL and 4.423 µg/mL"},
      {"measurement": "plasma drug concentration, individual mice #1-#6", "setting": "20 mg/kg i.g. single, 2 h", "result": "2.104 µg/mL and 0.333 µg/mL and 8.420 µg/mL and 2.159 µg/mL and 9.708 µg/mL and 1.135 µg/mL"},
      {"measurement": "plasma drug concentration, individual mice #1-#6", "setting": "20 mg/kg i.g. single, 3 h", "result": "6.753 µg/mL and 2.669 µg/mL and 0.821 µg/mL and 0.263 µg/mL and 4.318 µg/mL and 2.858 µg/mL"},
      {"measurement": "plasma drug concentration, individual mice #1-#6", "setting": "20 mg/kg i.g. single, 4 h", "result": "0.148 µg/mL and 0.385 µg/mL and 2.256 µg/mL and 0.255 µg/mL and 0.112 µg/mL"},
      {"measurement": "plasma drug concentration, individual mice #1-#6", "setting": "20 mg/kg i.g. single, 6 h", "result": 0.281, "unit": "µg/mL"},
      {"measurement": "plasma drug concentration, individual mice #1-#6", "setting": "40 mg/kg i.g. single, 0.25 h", "result": "0.213 µg/mL and 6.513 µg/mL and 5.997 µg/mL and 6.990 µg/mL and 5.088 µg/mL and 4.173 µg/mL"},
      {"measurement": "plasma drug concentration, individual mice #1-#6", "setting": "40 mg/kg i.g. single, 0.5 h", "result": "9.747 µg/mL and 9.915 µg/mL and 0.706 µg/mL and 5.062 µg/mL and 0.282 µg/mL and 6.133 µg/mL"},
      {"measurement": "plasma drug concentration, individual mice #1-#6", "setting": "40 mg/kg i.g. single, 1 h", "result": "14.150 µg/mL and 8.056 µg/mL and 18.587 µg/mL and 13.042 µg/mL and 5.372 µg/mL and 0.689 µg/mL"},
      {"measurement": "plasma drug concentration, individual mice #1-#6", "setting": "40 mg/kg i.g. single, 2 h", "result": "0.719 µg/mL and 12.276 µg/mL and 9.415 µg/mL and 3.103 µg/mL and 2.389 µg/mL and 1.618 µg/mL"},
      {"measurement": "plasma drug concentration, individual mice #1-#6", "setting": "40 mg/kg i.g. single, 3 h", "result": "2.305 µg/mL and 1.716 µg/mL and 1.334 µg/mL and 0.438 µg/mL and 0.715 µg/mL and 0.252 µg/mL"},
      {"measurement": "plasma drug concentration, individual mice #1-#6", "setting": "40 mg/kg i.g. single, 4 h", "result": "3.921 µg/mL and 4.455 µg/mL and 5.669 µg/mL and 1.014 µg/mL and 10.453 µg/mL and 0.582 µg/mL"},
      {"measurement": "plasma drug concentration, individual mice #1-#6", "setting": "40 mg/kg i.g. single, 6 h", "result": "0.545 µg/mL and 1.856 µg/mL and 0.492 µg/mL and 3.179 µg/mL"},
      {"measurement": "plasma drug concentration, individual mice #1-#6", "setting": "40 mg/kg i.g. single, 8 h", "result": 0.331, "unit": "µg/mL"},
      {"measurement": "plasma drug concentration, individual mice #1-#6", "setting": "80 mg/kg i.g. single, 0.25 h", "result": "4.807 µg/mL and 6.532 µg/mL and 2.882 µg/mL and 9.761 µg/mL and 7.622 µg/mL and 5.181 µg/mL"},
      {"measurement": "plasma drug concentration, individual mice #1-#6", "setting": "80 mg/kg i.g. single, 0.5 h", "result": "11.869 µg/mL and 11.106 µg/mL and 13.915 µg/mL and 11.362 µg/mL and 10.320 µg/mL"},
      {"measurement": "plasma drug concentration, individual mice #1-#6", "setting": "80 mg/kg i.g. single, 1 h", "result": "12.846 µg/mL and 19.500 µg/mL and 0.446 µg/mL and 20.289 µg/mL and 23.386 µg/mL and 0.889 µg/mL"},
      {"measurement": "plasma drug concentration, individual mice #1-#6", "setting": "80 mg/kg i.g. single, 2 h", "result": "2.807 µg/mL and 6.223 µg/mL and 0.769 µg/mL and 22.499 µg/mL and 16.613 µg/mL and 4.650 µg/mL"},
      {"measurement": "plasma drug concentration, individual mice #1-#6", "setting": "80 mg/kg i.g. single, 3 h", "result": "0.671 µg/mL and 9.313 µg/mL and 2.798 µg/mL and 5.034 µg/mL and 8.033 µg/mL and 2.193 µg/mL"},
      {"measurement": "plasma drug concentration, individual mice #1-#6", "setting": "80 mg/kg i.g. single, 4 h", "result": "4.657 µg/mL and 22.517 µg/mL and 0.715 µg/mL and 5.330 µg/mL and 19.633 µg/mL and 0.839 µg/mL"},
      {"measurement": "plasma drug concentration, individual mice #1-#6", "setting": "80 mg/kg i.g. single, 6 h", "result": "0.088 µg/mL and 6.184 µg/mL and 7.238 µg/mL and 0.078 µg/mL"},
      {"measurement": "plasma drug concentration, individual mice #1-#6", "setting": "80 mg/kg i.g. single, 8 h", "result": "0.090 µg/mL and 4.871 µg/mL and 2.260 µg/mL"},
      {"measurement": "plasma drug concentration, individual mice #1-#6", "setting": "80 mg/kg i.g. single, 10 h", "result": "0.068 µg/mL and 7.993 µg/mL and 0.486 µg/mL and 0.080 µg/mL and 1.174 µg/mL and 0.415 µg/mL"},
      {"measurement": "plasma drug concentration, individual mice #1-#6", "setting": "80 mg/kg i.g. single, 24 h", "result": 0.151, "unit": "µg/mL"}
    ]}
  ]
}
